PMC4307257

Amino acid sequences for entries named in this document (tags omitted). Residues count along the entry.
UniProt P10860, residues 54-558: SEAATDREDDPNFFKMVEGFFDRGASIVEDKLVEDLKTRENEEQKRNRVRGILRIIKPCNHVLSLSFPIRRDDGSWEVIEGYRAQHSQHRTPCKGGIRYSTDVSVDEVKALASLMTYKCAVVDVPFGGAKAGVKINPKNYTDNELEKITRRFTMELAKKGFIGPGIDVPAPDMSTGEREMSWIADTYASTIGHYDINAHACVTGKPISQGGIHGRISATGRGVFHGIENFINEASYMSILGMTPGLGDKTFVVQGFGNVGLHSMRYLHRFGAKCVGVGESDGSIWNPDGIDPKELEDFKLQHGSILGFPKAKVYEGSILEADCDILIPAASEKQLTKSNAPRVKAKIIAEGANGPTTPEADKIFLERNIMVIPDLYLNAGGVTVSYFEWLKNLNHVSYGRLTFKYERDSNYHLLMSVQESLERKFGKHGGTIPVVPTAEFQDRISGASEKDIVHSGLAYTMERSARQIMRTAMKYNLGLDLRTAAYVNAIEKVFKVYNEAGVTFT
UniProt P63018: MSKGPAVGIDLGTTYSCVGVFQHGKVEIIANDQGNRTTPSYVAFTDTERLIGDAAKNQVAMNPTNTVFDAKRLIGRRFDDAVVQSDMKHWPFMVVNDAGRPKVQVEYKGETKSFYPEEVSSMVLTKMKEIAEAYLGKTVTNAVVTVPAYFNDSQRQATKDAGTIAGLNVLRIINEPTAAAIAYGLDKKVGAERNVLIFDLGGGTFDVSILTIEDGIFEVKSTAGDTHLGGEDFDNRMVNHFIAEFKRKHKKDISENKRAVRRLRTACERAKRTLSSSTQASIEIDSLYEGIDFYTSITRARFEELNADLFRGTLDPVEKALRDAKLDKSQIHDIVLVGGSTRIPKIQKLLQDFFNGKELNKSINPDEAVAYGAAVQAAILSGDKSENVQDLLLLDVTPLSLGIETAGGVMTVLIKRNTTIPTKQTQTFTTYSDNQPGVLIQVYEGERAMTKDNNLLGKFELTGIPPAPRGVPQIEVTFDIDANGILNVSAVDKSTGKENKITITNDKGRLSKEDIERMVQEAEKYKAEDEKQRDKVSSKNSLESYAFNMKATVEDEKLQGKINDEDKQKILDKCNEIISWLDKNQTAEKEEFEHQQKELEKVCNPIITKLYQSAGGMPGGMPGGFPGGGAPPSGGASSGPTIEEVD
UniProt P15999, residues 44-553: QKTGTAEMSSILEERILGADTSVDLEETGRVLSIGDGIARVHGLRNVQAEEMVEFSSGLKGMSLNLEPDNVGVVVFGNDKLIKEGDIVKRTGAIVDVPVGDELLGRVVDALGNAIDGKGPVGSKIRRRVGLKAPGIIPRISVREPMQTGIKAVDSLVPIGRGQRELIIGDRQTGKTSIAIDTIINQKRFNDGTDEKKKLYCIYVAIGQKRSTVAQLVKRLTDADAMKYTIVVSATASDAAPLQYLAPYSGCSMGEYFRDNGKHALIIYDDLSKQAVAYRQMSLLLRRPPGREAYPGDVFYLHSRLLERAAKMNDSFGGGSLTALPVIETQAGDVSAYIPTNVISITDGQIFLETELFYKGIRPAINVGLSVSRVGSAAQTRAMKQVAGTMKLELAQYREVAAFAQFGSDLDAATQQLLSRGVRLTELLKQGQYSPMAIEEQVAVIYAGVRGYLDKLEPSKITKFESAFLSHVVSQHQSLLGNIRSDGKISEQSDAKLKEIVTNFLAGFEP
UniProt Q6IG03: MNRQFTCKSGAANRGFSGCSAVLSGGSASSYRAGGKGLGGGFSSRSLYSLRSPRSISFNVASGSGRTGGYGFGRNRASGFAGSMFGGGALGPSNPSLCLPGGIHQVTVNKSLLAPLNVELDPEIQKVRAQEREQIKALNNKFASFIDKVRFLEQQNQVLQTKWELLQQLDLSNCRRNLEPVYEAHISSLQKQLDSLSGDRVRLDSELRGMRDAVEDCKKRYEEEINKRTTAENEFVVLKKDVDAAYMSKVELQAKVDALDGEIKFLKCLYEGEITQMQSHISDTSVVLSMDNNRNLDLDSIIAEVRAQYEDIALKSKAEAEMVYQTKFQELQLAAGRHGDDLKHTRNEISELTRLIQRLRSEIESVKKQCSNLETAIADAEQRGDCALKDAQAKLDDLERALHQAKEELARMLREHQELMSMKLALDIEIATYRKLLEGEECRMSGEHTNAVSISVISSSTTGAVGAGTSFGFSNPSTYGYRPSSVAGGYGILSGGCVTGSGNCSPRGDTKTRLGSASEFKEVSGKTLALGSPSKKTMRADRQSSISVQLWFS
UniProt P63039, residues 27-573: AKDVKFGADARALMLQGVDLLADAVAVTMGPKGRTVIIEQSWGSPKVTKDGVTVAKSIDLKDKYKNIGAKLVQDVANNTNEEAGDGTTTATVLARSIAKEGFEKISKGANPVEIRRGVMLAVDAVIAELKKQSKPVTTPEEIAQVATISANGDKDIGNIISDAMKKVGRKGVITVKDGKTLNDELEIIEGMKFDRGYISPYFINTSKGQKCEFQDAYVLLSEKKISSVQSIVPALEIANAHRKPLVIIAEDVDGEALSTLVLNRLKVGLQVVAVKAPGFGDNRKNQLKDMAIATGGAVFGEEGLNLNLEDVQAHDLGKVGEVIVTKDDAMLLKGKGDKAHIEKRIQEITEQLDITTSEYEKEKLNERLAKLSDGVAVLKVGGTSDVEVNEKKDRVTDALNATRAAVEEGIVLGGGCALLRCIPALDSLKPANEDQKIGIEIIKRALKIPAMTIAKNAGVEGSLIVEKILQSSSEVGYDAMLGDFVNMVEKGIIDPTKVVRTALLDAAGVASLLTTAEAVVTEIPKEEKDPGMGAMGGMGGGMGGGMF
UniProt P04764: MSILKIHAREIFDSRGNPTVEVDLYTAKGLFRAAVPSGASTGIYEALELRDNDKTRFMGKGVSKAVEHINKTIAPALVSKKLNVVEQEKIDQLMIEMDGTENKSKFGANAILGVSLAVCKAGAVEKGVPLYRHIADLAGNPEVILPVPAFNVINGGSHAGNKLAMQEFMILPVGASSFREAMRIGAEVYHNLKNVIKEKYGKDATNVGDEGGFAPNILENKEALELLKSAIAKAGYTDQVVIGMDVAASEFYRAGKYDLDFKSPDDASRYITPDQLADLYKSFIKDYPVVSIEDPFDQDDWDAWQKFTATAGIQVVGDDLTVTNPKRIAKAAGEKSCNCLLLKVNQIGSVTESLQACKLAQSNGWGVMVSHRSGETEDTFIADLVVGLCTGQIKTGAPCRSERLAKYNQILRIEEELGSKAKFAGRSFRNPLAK
UniProt P21707: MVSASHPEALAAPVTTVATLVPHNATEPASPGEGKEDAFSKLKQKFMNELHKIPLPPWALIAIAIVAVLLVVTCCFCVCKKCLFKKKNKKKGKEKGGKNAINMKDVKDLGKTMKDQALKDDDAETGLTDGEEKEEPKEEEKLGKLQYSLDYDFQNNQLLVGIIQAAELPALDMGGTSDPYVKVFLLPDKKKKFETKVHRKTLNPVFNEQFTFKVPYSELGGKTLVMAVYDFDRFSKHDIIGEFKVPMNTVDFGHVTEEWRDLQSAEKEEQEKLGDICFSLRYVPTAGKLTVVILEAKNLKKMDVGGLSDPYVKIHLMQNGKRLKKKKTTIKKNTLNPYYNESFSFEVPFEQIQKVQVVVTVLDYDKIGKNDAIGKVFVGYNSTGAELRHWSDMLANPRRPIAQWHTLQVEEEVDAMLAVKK
UniProt P04906: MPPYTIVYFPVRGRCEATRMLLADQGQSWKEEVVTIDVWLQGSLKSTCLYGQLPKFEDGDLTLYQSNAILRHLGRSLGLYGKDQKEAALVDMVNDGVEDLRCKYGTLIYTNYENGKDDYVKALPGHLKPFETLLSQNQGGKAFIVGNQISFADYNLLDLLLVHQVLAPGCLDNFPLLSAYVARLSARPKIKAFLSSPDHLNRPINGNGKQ
UniProt Q66HD0, residues 22-804: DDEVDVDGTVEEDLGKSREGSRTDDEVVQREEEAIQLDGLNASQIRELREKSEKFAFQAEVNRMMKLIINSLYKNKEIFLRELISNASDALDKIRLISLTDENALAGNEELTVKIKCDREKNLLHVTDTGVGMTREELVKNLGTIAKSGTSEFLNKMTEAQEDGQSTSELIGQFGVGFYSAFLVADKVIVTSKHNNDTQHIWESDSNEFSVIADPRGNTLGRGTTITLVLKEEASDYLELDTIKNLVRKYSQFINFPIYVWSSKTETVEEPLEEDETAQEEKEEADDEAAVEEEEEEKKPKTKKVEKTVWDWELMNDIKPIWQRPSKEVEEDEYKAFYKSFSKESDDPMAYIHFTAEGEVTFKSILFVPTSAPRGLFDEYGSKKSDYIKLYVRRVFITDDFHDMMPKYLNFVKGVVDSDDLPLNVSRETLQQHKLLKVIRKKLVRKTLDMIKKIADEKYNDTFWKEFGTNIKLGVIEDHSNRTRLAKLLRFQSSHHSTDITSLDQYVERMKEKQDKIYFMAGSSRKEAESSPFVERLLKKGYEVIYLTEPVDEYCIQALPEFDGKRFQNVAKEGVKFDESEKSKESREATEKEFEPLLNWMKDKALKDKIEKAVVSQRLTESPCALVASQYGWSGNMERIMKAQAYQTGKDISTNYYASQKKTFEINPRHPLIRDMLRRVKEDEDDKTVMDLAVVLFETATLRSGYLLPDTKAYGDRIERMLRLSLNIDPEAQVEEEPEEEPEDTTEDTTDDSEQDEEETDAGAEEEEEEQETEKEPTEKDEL
UniProt P04785, residues 20-509: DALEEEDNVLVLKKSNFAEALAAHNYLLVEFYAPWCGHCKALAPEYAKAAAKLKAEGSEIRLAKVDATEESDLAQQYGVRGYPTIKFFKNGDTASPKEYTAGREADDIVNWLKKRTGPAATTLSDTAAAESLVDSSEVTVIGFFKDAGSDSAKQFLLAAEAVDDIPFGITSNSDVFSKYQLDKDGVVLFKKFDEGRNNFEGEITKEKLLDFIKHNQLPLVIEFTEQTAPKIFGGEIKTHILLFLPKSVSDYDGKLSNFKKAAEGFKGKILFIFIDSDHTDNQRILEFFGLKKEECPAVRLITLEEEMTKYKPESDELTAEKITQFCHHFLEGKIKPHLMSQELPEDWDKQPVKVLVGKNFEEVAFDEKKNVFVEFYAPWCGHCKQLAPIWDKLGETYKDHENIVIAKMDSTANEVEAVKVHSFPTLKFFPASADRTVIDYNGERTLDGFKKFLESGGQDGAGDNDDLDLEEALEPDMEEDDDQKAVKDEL
UniProt P48721, residues 47-679: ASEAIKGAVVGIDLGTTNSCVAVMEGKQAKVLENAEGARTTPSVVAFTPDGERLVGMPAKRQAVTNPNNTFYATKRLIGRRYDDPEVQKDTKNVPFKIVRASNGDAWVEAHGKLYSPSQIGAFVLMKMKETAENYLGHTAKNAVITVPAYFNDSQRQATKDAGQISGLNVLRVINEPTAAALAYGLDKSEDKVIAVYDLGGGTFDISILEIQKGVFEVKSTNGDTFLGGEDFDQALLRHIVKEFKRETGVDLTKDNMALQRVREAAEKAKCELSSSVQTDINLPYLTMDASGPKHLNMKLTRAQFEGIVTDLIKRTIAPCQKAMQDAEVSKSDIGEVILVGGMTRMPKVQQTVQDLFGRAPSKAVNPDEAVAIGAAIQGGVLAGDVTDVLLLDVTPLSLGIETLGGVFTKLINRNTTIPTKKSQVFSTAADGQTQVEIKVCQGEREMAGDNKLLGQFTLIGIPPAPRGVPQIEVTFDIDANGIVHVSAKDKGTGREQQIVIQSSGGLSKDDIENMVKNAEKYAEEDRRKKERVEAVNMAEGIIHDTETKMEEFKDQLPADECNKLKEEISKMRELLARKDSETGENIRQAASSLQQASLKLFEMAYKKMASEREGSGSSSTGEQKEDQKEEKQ
UniProt P10719, residues 47-529: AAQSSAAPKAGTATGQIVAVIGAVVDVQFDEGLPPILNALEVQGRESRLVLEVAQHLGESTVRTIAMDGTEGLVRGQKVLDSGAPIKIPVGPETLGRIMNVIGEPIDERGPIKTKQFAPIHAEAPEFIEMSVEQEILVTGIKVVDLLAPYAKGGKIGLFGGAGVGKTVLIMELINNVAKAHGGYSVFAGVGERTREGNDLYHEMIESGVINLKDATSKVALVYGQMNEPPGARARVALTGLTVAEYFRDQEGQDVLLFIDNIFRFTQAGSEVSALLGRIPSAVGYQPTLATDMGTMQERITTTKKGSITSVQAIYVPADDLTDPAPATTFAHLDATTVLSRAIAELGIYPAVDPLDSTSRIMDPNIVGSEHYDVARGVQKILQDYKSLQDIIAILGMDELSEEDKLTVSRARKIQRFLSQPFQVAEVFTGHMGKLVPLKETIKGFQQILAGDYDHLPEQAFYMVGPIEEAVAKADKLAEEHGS
UniProt P09606: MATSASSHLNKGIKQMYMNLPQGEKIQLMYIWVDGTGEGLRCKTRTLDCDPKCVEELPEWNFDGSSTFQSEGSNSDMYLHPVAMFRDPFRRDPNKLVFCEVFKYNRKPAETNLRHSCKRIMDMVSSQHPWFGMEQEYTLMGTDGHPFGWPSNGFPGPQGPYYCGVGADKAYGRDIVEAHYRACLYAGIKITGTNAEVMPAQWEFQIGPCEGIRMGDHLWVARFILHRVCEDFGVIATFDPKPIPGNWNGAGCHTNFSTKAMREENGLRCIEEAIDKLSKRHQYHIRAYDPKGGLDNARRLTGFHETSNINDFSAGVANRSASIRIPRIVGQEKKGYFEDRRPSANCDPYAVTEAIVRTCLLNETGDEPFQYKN

Target: human amyloid-β protein fragment (1–42) (human) (UniProt P05067)
Test: affinity purification with mass spectrometry; amyloid-β 1–42 immobilized on Affi-Gel 10; cleared 3% Triton X-100 lysate of rat brain homogenate (control; also after 70 µM H2O2, 0.1 mM isatin or both, 37 °C, 30 min), overnight at 4 °C, 50 mM potassium phosphate pH 7.4; elution with 1 M glycine pH 2.8, 150 mM NaCl; LC-MS/MS; ligand-free Affi-Gel 10 as control; only the target purified

binding, binds:
Glutamate dehydrogenase 1, mitochondrial (from UniProt P10860 54-558)
Heat shock cognate 71 kDa protein (from UniProt P63018 1-646)
Pyruvate kinase isozymes M1/M2 (from UniProt P11980 1-531)
ATP synthase subunit α, mitochondrial (from UniProt P15999 44-553)
Keratin, type II cytoskeletal 73 (from UniProt Q6IG03 1-553)
Spectrin α chain, non-erythrocytic 1 (from UniProt P16086 1-2472)
60 kDa Heat shock protein, mitochondrial (from UniProt P63039 27-573)
Alpha-enolase (from UniProt P04764 1-434)
Synaptotagmin-1 (from UniProt P21707 1-421)
Glutathione S-transferase P OS (from UniProt P04906 1-210)
Endoplasmin (from UniProt Q66HD0 22-804)
Protein disulfide-isomerase (from UniProt P04785 20-509)
Stress-70 protein, mitochondrial (from UniProt P48721 47-679)
ATP synthase subunit β, mitochondrial (from UniProt P10719 47-529)
Glutamine synthetase (from UniProt P09606 1-373)
Heat shock protein HSP 90-α (from UniProt P82995 1-733)

No constants are given. Whether binding was seen depends on the method and setting. Binding seen in cells or lysates may run through a third protein. Here binding means that the protein was enriched with, or labelled near, the bait; the list need not be complete.
